Reference: PMC10432679
Results are given in words; binding and its absence hold for the method and conditions named. In cells and extracts the contact can be indirect. A yes stands for co-enrichment or nearness to the bait. Other partners may have been found.

Sequences of proteins named here, by UniProt entry; tags and fusion partners are left off. A change or cut given only in a name is not applied to a line headed by its entry.
UniProt Q57W41: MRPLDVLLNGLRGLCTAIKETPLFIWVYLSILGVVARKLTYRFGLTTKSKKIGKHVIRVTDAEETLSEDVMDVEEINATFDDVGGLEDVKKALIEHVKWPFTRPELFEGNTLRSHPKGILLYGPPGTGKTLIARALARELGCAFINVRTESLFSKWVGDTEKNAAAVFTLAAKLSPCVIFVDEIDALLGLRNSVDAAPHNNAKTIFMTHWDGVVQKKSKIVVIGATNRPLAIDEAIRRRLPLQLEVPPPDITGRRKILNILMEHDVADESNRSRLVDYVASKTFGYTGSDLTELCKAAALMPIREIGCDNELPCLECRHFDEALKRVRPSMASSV
UniProt Q386J8: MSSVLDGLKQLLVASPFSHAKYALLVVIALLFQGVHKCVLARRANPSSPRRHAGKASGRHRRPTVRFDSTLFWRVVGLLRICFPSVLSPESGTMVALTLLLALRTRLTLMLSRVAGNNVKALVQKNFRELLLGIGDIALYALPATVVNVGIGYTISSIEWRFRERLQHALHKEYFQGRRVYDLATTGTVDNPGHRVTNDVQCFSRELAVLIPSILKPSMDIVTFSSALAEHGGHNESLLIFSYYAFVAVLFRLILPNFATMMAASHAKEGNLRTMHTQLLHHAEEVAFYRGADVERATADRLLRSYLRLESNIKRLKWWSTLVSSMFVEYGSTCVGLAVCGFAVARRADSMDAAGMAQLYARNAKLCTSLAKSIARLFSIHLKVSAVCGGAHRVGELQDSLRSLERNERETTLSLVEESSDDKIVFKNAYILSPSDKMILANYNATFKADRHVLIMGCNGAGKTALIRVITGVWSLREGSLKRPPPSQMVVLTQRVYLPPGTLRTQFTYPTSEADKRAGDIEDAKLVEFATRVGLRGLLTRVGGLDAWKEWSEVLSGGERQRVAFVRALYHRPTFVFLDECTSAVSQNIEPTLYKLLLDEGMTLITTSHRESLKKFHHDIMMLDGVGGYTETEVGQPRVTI
UniProt Q580J2: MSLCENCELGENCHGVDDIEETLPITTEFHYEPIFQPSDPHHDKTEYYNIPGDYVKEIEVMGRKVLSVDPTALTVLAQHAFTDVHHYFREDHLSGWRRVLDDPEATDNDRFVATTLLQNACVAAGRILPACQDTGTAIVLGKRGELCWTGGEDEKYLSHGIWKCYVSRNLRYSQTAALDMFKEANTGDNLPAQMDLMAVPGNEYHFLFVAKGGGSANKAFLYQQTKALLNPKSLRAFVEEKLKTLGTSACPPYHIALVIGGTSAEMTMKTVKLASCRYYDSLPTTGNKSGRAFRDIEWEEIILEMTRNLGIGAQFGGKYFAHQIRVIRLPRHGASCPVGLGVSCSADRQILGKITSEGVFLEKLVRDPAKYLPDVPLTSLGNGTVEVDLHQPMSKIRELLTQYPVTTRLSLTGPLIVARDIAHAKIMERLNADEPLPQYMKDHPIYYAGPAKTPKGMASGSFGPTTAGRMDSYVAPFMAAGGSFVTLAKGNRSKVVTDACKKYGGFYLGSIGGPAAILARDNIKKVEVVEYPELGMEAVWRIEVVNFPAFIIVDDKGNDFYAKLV
UniProt Q585W6: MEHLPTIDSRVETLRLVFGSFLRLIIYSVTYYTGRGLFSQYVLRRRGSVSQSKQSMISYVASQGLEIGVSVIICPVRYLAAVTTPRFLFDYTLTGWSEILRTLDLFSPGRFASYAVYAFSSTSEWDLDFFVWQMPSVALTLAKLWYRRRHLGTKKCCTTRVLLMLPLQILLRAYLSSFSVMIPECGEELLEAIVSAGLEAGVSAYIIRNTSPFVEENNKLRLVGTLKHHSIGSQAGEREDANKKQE
UniProt Q57VU5: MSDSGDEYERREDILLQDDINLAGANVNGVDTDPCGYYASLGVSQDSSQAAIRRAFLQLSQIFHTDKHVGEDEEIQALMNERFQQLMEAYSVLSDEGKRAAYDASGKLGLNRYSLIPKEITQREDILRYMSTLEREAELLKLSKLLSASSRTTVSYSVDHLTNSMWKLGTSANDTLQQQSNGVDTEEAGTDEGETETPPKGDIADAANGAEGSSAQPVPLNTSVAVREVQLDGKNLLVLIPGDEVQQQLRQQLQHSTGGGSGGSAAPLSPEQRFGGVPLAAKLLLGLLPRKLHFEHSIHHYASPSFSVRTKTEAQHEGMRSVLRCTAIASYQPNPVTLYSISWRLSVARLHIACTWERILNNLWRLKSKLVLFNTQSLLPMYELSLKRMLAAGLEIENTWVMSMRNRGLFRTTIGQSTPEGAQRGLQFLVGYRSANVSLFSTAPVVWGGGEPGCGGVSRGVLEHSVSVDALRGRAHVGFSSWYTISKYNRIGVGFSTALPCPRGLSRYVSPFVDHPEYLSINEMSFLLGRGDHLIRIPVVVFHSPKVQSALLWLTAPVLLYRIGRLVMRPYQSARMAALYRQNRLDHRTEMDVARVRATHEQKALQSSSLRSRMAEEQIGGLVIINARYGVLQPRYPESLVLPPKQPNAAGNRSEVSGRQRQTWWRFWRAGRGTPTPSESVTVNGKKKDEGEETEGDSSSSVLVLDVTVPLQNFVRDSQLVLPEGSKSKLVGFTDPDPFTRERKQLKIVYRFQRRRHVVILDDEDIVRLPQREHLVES
UniProt Q57Y09: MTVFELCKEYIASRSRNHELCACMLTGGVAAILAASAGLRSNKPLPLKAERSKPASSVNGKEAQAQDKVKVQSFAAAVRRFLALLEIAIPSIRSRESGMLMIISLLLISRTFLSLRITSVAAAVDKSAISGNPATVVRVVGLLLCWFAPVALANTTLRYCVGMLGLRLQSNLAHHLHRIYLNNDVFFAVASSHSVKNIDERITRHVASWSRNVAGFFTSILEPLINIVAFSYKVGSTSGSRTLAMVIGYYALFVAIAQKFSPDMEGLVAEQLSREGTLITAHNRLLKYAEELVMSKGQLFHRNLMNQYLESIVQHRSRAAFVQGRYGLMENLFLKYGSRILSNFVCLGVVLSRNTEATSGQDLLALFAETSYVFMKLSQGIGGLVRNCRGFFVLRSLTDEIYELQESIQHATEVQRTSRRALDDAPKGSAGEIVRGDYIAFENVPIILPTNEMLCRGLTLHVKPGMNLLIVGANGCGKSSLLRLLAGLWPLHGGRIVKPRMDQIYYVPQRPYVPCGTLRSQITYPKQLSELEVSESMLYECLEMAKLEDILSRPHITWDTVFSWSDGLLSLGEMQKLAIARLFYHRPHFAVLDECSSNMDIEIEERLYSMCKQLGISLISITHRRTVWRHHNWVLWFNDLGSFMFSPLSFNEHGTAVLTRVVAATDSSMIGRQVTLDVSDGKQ
UniProt Q57ZC7: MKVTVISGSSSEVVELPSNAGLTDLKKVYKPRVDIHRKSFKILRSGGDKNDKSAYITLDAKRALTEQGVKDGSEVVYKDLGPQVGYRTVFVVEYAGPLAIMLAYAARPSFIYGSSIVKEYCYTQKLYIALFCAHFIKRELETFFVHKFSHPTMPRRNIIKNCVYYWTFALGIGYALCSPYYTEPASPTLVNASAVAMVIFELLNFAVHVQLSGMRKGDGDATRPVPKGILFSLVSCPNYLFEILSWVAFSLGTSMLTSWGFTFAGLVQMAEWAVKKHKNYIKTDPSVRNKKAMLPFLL
UniProt Q383C6: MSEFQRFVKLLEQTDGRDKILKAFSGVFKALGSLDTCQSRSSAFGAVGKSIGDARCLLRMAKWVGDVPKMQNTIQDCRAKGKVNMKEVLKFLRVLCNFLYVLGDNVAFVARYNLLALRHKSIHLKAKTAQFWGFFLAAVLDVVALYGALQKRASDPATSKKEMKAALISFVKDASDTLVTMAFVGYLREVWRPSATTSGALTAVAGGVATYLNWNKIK
UniProt Q38CI9: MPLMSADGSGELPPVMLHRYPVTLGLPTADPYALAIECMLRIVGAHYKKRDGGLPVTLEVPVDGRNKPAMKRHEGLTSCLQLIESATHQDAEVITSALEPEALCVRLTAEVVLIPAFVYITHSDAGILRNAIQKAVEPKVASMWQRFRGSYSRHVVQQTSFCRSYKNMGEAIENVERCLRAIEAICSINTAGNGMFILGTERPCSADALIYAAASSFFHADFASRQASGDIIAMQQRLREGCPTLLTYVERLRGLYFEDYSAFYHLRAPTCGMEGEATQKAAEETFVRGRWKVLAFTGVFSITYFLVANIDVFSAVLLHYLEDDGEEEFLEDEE

B1: phosphoglycerate kinase A (protein, UniProt P08891 1-505)
chain: MSTAPNAKNNISLKKSVGDVWPLTAKRVLMRVDFNVPMQNGHITNDYRIRAAIPTIRRVIDQGGICILLSHLGRPRGVSMVAGVRDIRRRYHEAQFHDNKGKTAFFSVLPGEEKVKILAKSSAREEATHISPEVKSGKTMLFARLPEDEKKSLLMQYLNENKDSALPQMSVSAGYEEQYSLRPVAVRLAELLGQHVYFAHDCLDARVEVSRLKRGNVMLLENVRFYSEENGENAEEREAMAKILASYGDVYISDAFGAAHRDSATMTGIPKILGHGAAGYLMEKEISYFAKVLGNPPRPLEAIVGGAKVSEKIQLLDNMKQRIDYLLIGGAMAYTFLKAQGYSIGKSKCEESKLEFARSLLKKAEDRKVQVILPIDHVCHTEFKAVDSPLITEDQNIPEGHMALDIGPKTIEKYVQTIGKCKSAIWNGPMGVFEMVPYSKGTFAIAKAMGRGTQKRGLMSIIGGGESAGAAEAARISHVSTGGGASLELLEGKTLPGVAVLDDKE

Each molecule was assayed against in situ C-terminally HA-tagged TbMsp1 (T. brucei) (UniProt Q57W41) (assay: affinity purification with mass spectrometry; SILAC immunoprecipitation with anti-HA affinity matrix from digitonin-extracted crude mitochondrial fractions solubilised in 1% digitonin, 20 mM Tris-HCl pH 7.4, 100 mM NaCl, 25 mM KCl, 4°C; mixed 29.13 parent cells and cells with in situ tagged TbMsp1-HA; n = 3; done in the presence of pATOM36 and in pATOM36 RNAi-depleted cells).
B1 was tested, and the binding was “binds”.

Biological target: in situ C-terminally HA-tagged TbMsp1 (T. brucei) (UniProt Q57W41)
Assay: as above
Remark: another data set of the same source
“glycosomal metabolite transporter GAT2 (from UniProt Q386J8)” was tested, and the binding was “binds”. For “cytosolic fumarate hydratase (Tb927.3.4500) (from UniProt Q580J2)”, the binding was “binds”. “protein of the mitochondrial OM proteome 31 (POMP31), endogenous (from UniProt Q585W6)” was tested, and the binding was “binds”. TbJ31, endogenous (from UniProt Q57VU5) was tested, and the binding was “binds”. In the case of “glycosomal metabolite transporter GAT1 (from UniProt Q57Y09)”, the binding is reported as “binds”. With “TbTsc13, endogenous (from UniProt Q57ZC7)” the binding was “binds”. In the case of “peroxisome biogenesis protein Pex11 (from UniProt Q383C6)”, the binding is reported as “binds”. For “POMP19, endogenous (from UniProt Q38CI9)”, the binding was “binds”.
